According to US10473667B2, “Methods apparatuses and systems for detecting and quantifying phosphoproteins” (Oregon Health & Science University, priority 2012, dated 2019):
Entries after “also recorded” stand apart in the source; their conditions may differ. For at least one compound, name, drawing or mass did not settle the structure.

Assays:
STAT5* = assay: QD-STAT5* / QD-pSTAT5 probe assay in K562 CML cells; format: cell-based
Erk* = assay: QD-Erk* probe assay in K562 cancer cells; format: cell-based; conditions: K562 cells treated with dasatinib vs untreated cells, FIG. 3A
pSTAT5 = assay: Dual-color QD probe assay of pSTAT5 in CD34+ stem cells from CML patients; format: cell-based, human; conditions: FIG. 11C
Crkl* = assay: QD-Crkl* / QD-pCRKL probe assay in K562 CML cells; format: cell-based
[1] = CML cell lines bearing BCR-ABL, increasing dasatinib treatment, corresponded to Western and FACS

SMILES: Cc1nc(Nc2ncc(C(=O)Nc3c(C)cccc3Cl)s2)cc(N2CCN(CCO)CC2)n1 [dasatinib]
- average pSTAT5 level (average number of QD probes/cell) (STAT5*; [1]): decreased with a concomitant increase in dasatinib treatment
- levels of QD-STAT5* (STAT5*; K562 cells treated with dasatinib vs untreated cells, FIG. 3B, FIGS. 4A-4D): greatly reduced levels; also recorded: suppressed
- heterogeneity in pSTAT5 activity (SD of QDs/cell) (STAT5*; clonal K562 CML cells, FIG. 11A): decreased
- levels of QD-Erk* (Erk*): greatly reduced levels
- inhibition of pSTAT5 in single CD34+ stem cells (pSTAT5): existence of stem cells with pSTAT5 resistance to dasatinib
- average pCRKL level (average number of QD probes/cell) (Crkl*; [1]): decreased with a concomitant increase in dasatinib treatment
- levels of QD-Crkl* (Crkl*; K562 cells treated with dasatinib vs untreated cells, FIG. 3C): greatly reduced levels
